At least one read-out could not be matched to a standard name with certainty.
Key:
[1] = Solubilization of composition 1 judged by absorbance and emission spectra; format: physicochemical
Protocol: A composition comprising the fluorophore labelled receptor-targeting peptide conjugate ICG-Glu-Glu-AE105 (called composition 1 below) is soluble in DMSO in concentrations up to 20 mg/ml with a peak spectral absorption at 800 nm similar to indocyanine green (ICG) currently used in the clinic for visual assessment of vessels, blood flow and related tissue perfusion, fig. A.
An aqueous formulation of composition 1 of 1.0 mg/ml has been developed according to the present invention, using excipients suitable for pharmaceutical formulation development.
A. Excitation was conducted at 775 nm.
Further Explanation of the Figs. A-D A. Absorbance and emission spectrum of FG001 dissolved in DMSO and PBS at 1.0 mg/ml. Excitation wavelength: 775 nm. Analytical samples for absorbance measurement were further diluted 200-fold and 400-1000-fold for emission spectra. B. Absorbance spectrum of FG001 dissolved in 1) 10 mM sodium phosphate, 45 mg/ml mannitol, pH 7.4, 2) 10 mM sodium phosphate, 45 mg/ml mannitol, 1% Polysorbate 20, pH 7.4 and 3) PBS, 0.2 g/ml HBC. Analytical samples for absorbance measurement were further diluted 200-fold and 400-1000-fold for emission spectra C. […] Excitation wavelength: 775 nm. Analytical samples for absorbance measurement were further diluted 200-fold and 400-1000-fold for emission spectra

[2] = Optimal concentration range of Polysorbate 20 for solubilization (absorption spectrum); format: physicochemical; details: formulations containing >0.01% Polysorbate 20; 1.0 mg/ml in 10 mM sodium phosphate, 45 mg/ml mannitol, pH 7.4

SMILES: CC(C)C[C@H](NC(=O)[C@H](Cc1ccc(O)cc1)NC(=O)C(CCCNC(=N)N)NC(=O)C(CO)NC(=O)C(Cc1ccccc1)NC(=O)[C@H](CC1CCCCC1)NC(=O)C(CC(=O)O)NC(=O)C(CCC(=O)O)NC(=O)C(CCC(=O)O)NC(=O)CCCCCN1\C(=C/C=C/C=C/C=C/C2=[N+](CCCCS(=O)(=O)[O-])c3ccc4ccccc4c3C2(C)C)C(C)(C)c2c1ccc1ccccc21)C(=O)N[C@@H](Cc1c[nH]c2ccccc12)C(=O)N[C@@H](CO)C(=O)O (stereo partly drawn) [composition 1, ICG-Glu-Glu-AE105]
- solubilization in three formulations ([1]; 1.0 mg/ml in DMSO, 10 mM sodium phosphate, 45 mg/ml mannitol, 1% Polysorbate 20, pH 7.4, PBS, 0.2 g/ml HBC): complete solubilization
- solubilizing by addition of HBC ([1]; phosphate buffer saline + 0.2 g/ml 2-Hydroxypropyl-β-cyclodextrin, 1.0 mg/ml): very efficient in solubilizing
- solubilization by absorption spectrum [2]: fully solubilized
